# Where a name gives a salt, the structure may show the parent alone. The list shows a part of the results. Repeats in this data set agree poorly, so a single value says little.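 The human kidney-derived cells carry a stably integrated construct of eight TEAD-binding elements driving luciferase, read by luminescence in a drug-repurposing library screen. A compound counts as a hit when its signal is more than five robust Z scores above the plate mean.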
# Tested on: HEK293A TEAD-LUC reporter
# Test: TEAD-luciferase reporter activity (YAP activation), robust Z score vs plate; higher = stronger YAP/TEAD activation
# Settings: 24 h
Structure (SMILES),TEAD-luciferase reporter activity (compound concentration: 200 nM),TEAD-luciferase reporter activity (compound concentration: 2 uM),TEAD-luciferase reporter activity (compound concentration: 10 uM)
Cc1ccc2c(c1)CCCN2C(=O)C1CCc2[nH]c(C)nc2C1 (centres undefined),inactive: -0.299,inactive: -1.42,inactive: -2.25
CCOC(=O)OC(C)OC(=O)[C@@H]1N2C(=O)[C@@H](NC(=O)[C@H](N)c3ccccc3)[C@H]2SC1(C)C (some centres undefined),inactive: -0.994,–,active: 6.4
CCOC(=O)OC(C)OC(=O)[C@@H]1N2C(=O)[C@@H](NC(=O)[C@H](N)c3ccccc3)[C@H]2SC1(C)C (some centres undefined) [bacampicillin],–,inactive: -2.31,–
CC1=C(C)C(=O)C(CCCCCCCCCC[P+](c2ccccc2)(c2ccccc2)c2ccccc2)=CC1=O,inactive: 2.42,inactive: 0.737,inactive: -0.058
COc1ccc(C(=O)N2CCC(N3Cc4ccccc4C3=O)CC2)cc1,inactive: -1.98,–,inactive: 0.037
OC[C@H]1O[C@H](O)[C@H](O)[C@@H](O)C1O[C@H]1O[C@H](COC2O[C@H](CO)[C@@H](O)[C@H](O)[C@H]2O)C(O[C@H]2O[C@H](CO)[C@@H](O)[C@H](O)[C@H]2O)[C@H](O)[C@H]1O (some centres undefined),inactive: -0.902,inactive: 0.507,inactive: 0.656
O=C(Cc1cccc(OC(F)(F)F)c1)Nc1ccc(CCCCc2nnc(NC(=O)Cc3ccccn3)s2)nn1,inactive: -1.57,inactive: -1.62,inactive: -1.83
CC(C)C[C@@H](NC(=O)[C@H](N)CCCCN)C(=O)N[C@H](Cc1ccccc1)C(=O)N[C@H](CCCNC(=N)N)C(=O)N[C@H](Cc1cccc2ccccc12)C(=O)N[C@H](CCC(N)=O)C(=O)N[C@H](C)C(=O)N[C@H](CCCCN)C(=O)N[C@H](Cc1cccc2ccccc12)C(=O)O,inactive: -1.39,inactive: 1.8,inactive: -0.277
Nc1c2ccccc2nc2ccccc12,inactive: -0.466,inactive: 1.8,inactive: 0.775
CCOc1cccc(CN2CCCC23Cc2ccccc2CNC3=O)c1 (centres undefined),inactive: 0.612,–,inactive: -0.119
CC(C)CC(N)=O [isovaleramide],inactive: -0.996,inactive: -0.713,inactive: 1.35
COc1cc(OC)c(C(=O)CCCN2CCCC2)c(OC)c1,inactive: 1.01,–,inactive: -1.45
COc1cc(OC)c(C(=O)CCCN2CCCC2)c(OC)c1 [buflomedil],–,inactive: -1.98,–
O[C@H](C[C@H]1c2c(F)cccc2-c2cncn21)[C@H]1CC[C@H](O)CC1 [Navoximod],inactive: 0.648,–,inactive: 0.364
CNC(=O)CN1CCN2CCN(CC(=O)NC)CC(=O)[O][Gd]([O]C(=O)C2)[O]C(=O)C1,inactive: -1.08,inactive: -0.972,inactive: 2.1
c1ccc(C(c2ccccc2)N2CCN(CCCC3(c4ccccc4)OCCO3)CC2)cc1 [Dotarizine],inactive: -2.66,inactive: -0.905,inactive: 1.45
COC(=O)c1ccccc1Nc1c(Cl)ccc(C)c1Cl,inactive: -1.44,inactive: -0.148,inactive: 0.101
Cc1nc(=O)c(C#N)c(NCc2cccnc2)[nH]1 [Pelri hydrochloride],inactive: -1.12,–,–
Cc1nc(=O)c(C#N)c(NCc2cccnc2)[nH]1 [Pelri   hydrochloride],–,–,inactive: 0.0437
COC(=O)CCC[N+](C)(C)C [Carpronium chloride],inactive: -2.35,inactive: -1,inactive: -0.819
Oc1nc2cc(Cl)ccc2c(O)c1-c1ccccc1,inactive: -1.04,inactive: -0.719,inactive: 3.93
CO[C@H](C(=O)NO)[C@@H](CC(C)C)C(=O)N[C@H](C(=O)Nc1ccccn1)C(C)(C)C,inactive: -0.622,inactive: -0.86,inactive: -1.48
COC(=O)Nc1cccc(C)c1CNc1cccn2c(C)c(C)nc12 [Pumaprazole],–,inactive: -1.67,–
COC(=O)Nc1cccc(C)c1CNc1cccn2c(C)c(C)nc12,inactive: 0.945,–,inactive: -1.3
CC(C)(C)NC(=O)c1ccc(OC/C(=C/F)CN)cc1,inactive: 0.847,inactive: -1.59,inactive: 0.753
O=C(/C=C/c1ccc2c(c1)OCO2)N1CCCCC1 [Ilepcimide],inactive: 3.65,inactive: -0.0869,inactive: 3.95
C[C@H](N)C(=O)NCC(=O)N[C@H]1CSSC[C@@H](C(=O)O)NC(=O)[C@H](CO)NC(=O)[C@H]([C@@H](C)O)NC(=O)[C@H](Cc2ccccc2)NC(=O)[C@H]([C@@H](C)O)NC(=O)[C@H](CCCCN)NC(=O)[C@H](Cc2c[nH]c3ccccc23)NC(=O)[C@H](Cc2ccccc2)NC(=O)[C@H](Cc2ccccc2)NC(=O)[C@H](CC(N)=O)NC(=O)[C@H](CCCCN)NC1=O [Somatostatin],inactive: 0.603,inactive: -1.22,active: 10.2

Structure (SMILES),TEAD-luciferase reporter activity (compound concentration: 200 nM),TEAD-luciferase reporter activity (compound concentration: 2 uM),TEAD-luciferase reporter activity (compound concentration: 10 uM)
"CC(C)(C)NC(=O)[C@@H]1C[C@@H]2CCCC[C@@H]2CN1C[C@@H](O)[C@H](Cc1ccccc1)NC(=O)[C@H](CC(N)=O)NC(=O)c1ccc2ccccc2n1 [saquinavir, soft gel]",–,inactive: -1.42,–
CC(C)(C)NC(=O)[C@@H]1C[C@@H]2CCCC[C@@H]2CN1C[C@@H](O)[C@H](Cc1ccccc1)NC(=O)[C@H](CC(N)=O)NC(=O)c1ccc2ccccc2n1,inactive: -1.22,–,inactive: 1.51
CC(=O)Nc1c(-c2ccccc2)cccc1S(=O)(=O)NC(CCCc1ccc(N)cn1)C(=O)N1CCC(=C(F)F)CC1 (centres undefined),inactive: 0.254,inactive: -1.39,inactive: -1.64
COc1ccc2c(c1)C(O)(CCCN(C)C)c1ccccc1S2 (centres undefined),inactive: -1.18,inactive: -1.87,inactive: 0.0632
Cc1cc(C(=O)N[C@@H](CCC(=O)O)C(=O)O)sc1CCC1CNc2nc(N)[nH]c(=O)c2C1 (some centres undefined) [Pelitrexol],inactive: -0.681,inactive: 0.499,inactive: 1.43
CC(=O)Nc1ccn([C@@H]2O[C@H](CO)[C@@H](O)[C@H]2O)c(=O)n1,inactive: -1.02,inactive: 3.07,inactive: 1.37
Nc1ccc(S(=O)(=O)N2CCCCCC2)cc1,inactive: -1.82,inactive: 0.164,inactive: -1.39
O=C(NCCCCCCCCNC(=O)C(Cl)Cl)C(Cl)Cl,inactive: -0.399,inactive: -1.64,inactive: -0.269
Cc1ccc(NC(=O)c2ccc(CN3CCN(C)CC3)cc2)cc1Nc1nccc(-c2cccnc2)n1,inactive: -0.477,–,inactive: 1.74
Cc1ccc(NC(=O)c2ccc(CN3CCN(C)CC3)cc2)cc1Nc1nccc(-c2cccnc2)n1 [imatinib mesilate],–,inactive: -0.412,–
COc1ccc(CCN(C)c2cn[nH]c(=O)c2Br)cc1OC,inactive: -0.72,inactive: -1.81,inactive: -0.739
CNc1nc(=O)n(C2C[C@@H](O)[C@@H](CO)O2)cc1C (some centres undefined),inactive: -1.45,inactive: -0.993,inactive: -0.657
O=C(O)CCNC(=O)C1CCCN(C(=O)CCC2CCNCC2)C1 (centres undefined),inactive: -1.7,inactive: 0.937,inactive: 2.14
Cc1nc(C)c(-c2ccc([C@H]3CC[C@H](CC(=O)O)CC3)cc2)nc1C(N)=O,inactive: 0.399,inactive: -0.439,inactive: 0.0691
CC(=O)O[C@]1(C(C)=O)CC[C@H]2[C@@H]3C=C(Cl)C4=CC(=O)CC[C@]4(C)[C@H]3CC[C@@]21C,inactive: -1.32,–,inactive: 0.777
CC(=O)O[C@]1(C(C)=O)CC[C@H]2[C@@H]3C=C(Cl)C4=CC(=O)CC[C@]4(C)[C@H]3CC[C@@]21C [amadi    acetate],–,inactive: -1.13,–
O=C1CN2C(=O)CCC2N1 (centres undefined) [Dimiracetam],inactive: -1.69,inactive: 1.69,inactive: 0.234
COc1ccc(S(=O)(=O)n2cc(CCC(=O)O)c3cc(OC)ccc32)cc1,inactive: 4.27,inactive: -0.142,inactive: -0.137
CC(C)Cc1ccc(-c2nc(-c3ccc(C(C)NC4CC(C(=O)O)C4)cc3)no2)cc1 (centres undefined),inactive: -1.05,inactive: 0.845,inactive: 2.54
CC1(C)CC[C@]2(C(=O)O)CC[C@]3(C)C(=CC[C@@H]4[C@@]5(C)CC[C@H](O)C(C)(C)[C@@H]5CC[C@]43C)[C@@H]2C1,inactive: 0.0394,inactive: 0.193,inactive: -0.382
CNC(=O)c1cc2c(Oc3ccc(C(F)(F)F)cc3)cncc2s1,inactive: -1.34,inactive: -2.89,inactive: -2.12
N=C(N)N1CCc2ccc(OCC3(C(=O)O)CCN(c4ccncc4)CC3)cc2C1,inactive: -1.62,inactive: -0.213,inactive: 1.8
COC(=O)Nc1cn2nc(OCc3cc(OC)c(OC)c(OC)c3)ccc2n1,inactive: 3.98,active: 5.37,inactive: 4.95
CC(=O)O[C@]1(C(C)=O)CC[C@H]2[C@@H]3CCC4=CC(=O)CCC4=C3[C@@H](c3ccc(N(C)C)cc3)C[C@@]21C [ulipristal acetate],inactive: 1.13,inactive: -1.42,inactive: 2.48
COc1cc(C)nc(-n2nc(C)cc2OC)n1,inactive: 0.891,–,inactive: 0.33
COc1cc(C)nc(-n2nc(C)cc2OC)n1 [epirizole],–,inactive: -0.724,–
Cc1ccc(CNCC2(F)CCN(C(=O)c3ccc(F)c(Cl)c3)CC2)nc1,inactive: 0.74,inactive: -0.624,inactive: -0.879

# Single records (already shown). Values in the order: TEAD-luciferase reporter activity (compound concentration: 200 nM)	TEAD-luciferase reporter activity (compound concentration: 2 uM)	TEAD-luciferase reporter activity (compound concentration: 10 uM)
# CC(C)(C)NC(=O)[C@@H]1C[C@@H]2CCCC[C@@H]2CN1C[C@@H](O)[C@H](Cc1ccccc1)NC(=O)[C@H](CC(N)=O)NC(=O)c1ccc2ccccc2n1 [saquinavir, soft gel] in the list: –	inactive: -1.42	–
# O=C(O)CCNC(=O)C1CCCN(C(=O)CCC2CCNCC2)C1 (centres undefined) in the list: inactive: -1.7	inactive: 0.937	inactive: 2.14

# From the supplement of paper PMC10735217
